For assay [1], the target named is GST fusion protein containing PLIC-1 Uba domain alone (UniProt Q9UMX0). The assay is described as follows: pull-down; GST fusion proteins (around 2 µg) mixed with cell lysates containing Flag-Trif for 2 hours; bound proteins eluted from the GST column and analysed for Flag-Trif; only the target purified.
Assay [2] concerns the target Flag-Trif (UniProt Q8IUC6). The assay is described as follows: co-IP; 293T cells cotransfected with YFP-PLIC1 or GFP and Flag-Trif; lysates on M2 anti-Flag affinity resin, washed with PBS, western blot. In general terms: A western blot detects proteins with antibodies after separation by electrophoresis.

By UniProt entry, the sequences of proteins in these tests, tags left out. Where a name states a change or a piece, a line headed by the entry shows the natural chain unless it says otherwise. Residues count along the entry.
UniProt Q9UMX0: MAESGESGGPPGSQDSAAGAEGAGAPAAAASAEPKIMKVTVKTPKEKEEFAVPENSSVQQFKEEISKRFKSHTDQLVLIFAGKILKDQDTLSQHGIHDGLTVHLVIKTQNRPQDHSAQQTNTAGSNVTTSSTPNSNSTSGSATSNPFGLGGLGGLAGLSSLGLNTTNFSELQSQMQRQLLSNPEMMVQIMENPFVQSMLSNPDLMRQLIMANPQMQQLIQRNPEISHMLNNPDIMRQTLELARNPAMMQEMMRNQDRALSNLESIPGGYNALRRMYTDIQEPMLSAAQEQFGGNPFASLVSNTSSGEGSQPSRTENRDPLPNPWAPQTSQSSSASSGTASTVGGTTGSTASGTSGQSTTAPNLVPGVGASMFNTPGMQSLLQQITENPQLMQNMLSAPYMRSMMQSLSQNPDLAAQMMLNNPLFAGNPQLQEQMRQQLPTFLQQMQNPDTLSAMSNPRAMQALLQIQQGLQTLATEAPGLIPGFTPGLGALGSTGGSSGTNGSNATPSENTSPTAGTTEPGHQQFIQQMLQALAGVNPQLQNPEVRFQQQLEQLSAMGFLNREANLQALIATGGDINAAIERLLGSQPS
GST fusion protein containing PLIC-1 Uba domain alone: residues 546-586 of Q9UMX0
UniProt Q8IUC6: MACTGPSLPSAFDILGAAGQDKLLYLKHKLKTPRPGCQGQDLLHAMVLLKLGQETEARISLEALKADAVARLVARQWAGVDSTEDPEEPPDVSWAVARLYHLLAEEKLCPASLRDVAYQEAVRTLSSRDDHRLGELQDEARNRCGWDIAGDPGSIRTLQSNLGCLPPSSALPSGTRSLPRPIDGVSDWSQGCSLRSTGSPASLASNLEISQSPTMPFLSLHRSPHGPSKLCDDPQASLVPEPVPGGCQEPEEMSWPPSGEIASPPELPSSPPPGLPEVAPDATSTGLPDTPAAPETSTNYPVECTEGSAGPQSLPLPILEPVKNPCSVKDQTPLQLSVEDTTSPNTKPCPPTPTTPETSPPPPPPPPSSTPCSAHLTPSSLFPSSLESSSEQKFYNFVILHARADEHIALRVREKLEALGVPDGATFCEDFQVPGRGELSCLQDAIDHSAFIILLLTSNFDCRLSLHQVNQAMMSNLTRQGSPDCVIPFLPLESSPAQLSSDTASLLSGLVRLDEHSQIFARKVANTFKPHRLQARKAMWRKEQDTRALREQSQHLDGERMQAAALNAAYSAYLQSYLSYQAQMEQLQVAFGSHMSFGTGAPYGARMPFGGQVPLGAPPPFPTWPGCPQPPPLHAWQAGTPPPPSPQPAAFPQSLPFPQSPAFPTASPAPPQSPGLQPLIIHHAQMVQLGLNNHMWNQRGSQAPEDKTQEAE

Results are given in words; binding and its absence hold for the method and conditions named. In cells and extracts the contact can be indirect. Some entries that bind do so weakly or less than the wild type.

For the substance Flag-Trif (from UniProt Q8IUC6 1-712), in assay [1], the binding result is “binds”.
As for “YFP-PLIC-1 (protein linking integrin-associated protein to cytoskeleton 1) (from UniProt Q9UMX0 1-589)”, the binding result in assay [2] is reported as “binds”.

Source of the values: publication PMC3117881.
